Reference: PMC7538161
Results are given in words; binding and its absence hold for the method and conditions named. Some results given as binding are weak or reduced against the parent protein; the word gives no strength.

Biological target: T1, human CaMKII-α hub domain (human), Q9UQM7
T1 chain: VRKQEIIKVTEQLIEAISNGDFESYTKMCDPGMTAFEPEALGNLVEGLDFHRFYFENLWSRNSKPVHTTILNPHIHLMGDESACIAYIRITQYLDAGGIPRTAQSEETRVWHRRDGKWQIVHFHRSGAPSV
Experiment: native MS; hub 120 µM (subunits) mixed with 1 µM to 1 mM unphosphorylated peptide, ~400 mM ammonium acetate, incubated 5 min at room temperature; nanoelectrospray, sample cone voltage 50 V, source 80°C; both purified
Settings: remark: other sources report otherwise

binding: binds
B1: Peptide C (peptide)
peptide: LKEFNAERKLEGAILTTMLA
